PubChem BioAssay AID504784 | Drosophila RNAi Screening Center | 2011
Aim: 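Fly genes whose silencing alters how much lipid cells keep in droplets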 (primary screen). Cell system: Drosophila Kc167 embryonic cells. Knock-down reagent: long dsRNA against Drosophila genes, about 250 ng dsRNA per well. Time to read-out: 4 days. Treatment: cells fed 400 µM oleic acid bound to BSA. Read-out: 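Microscope images give a droplet-to-nucleus area ratio, taken as log and converted to a screen-wide B-score; higher values mean greater lipid storage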. Scale: droplet/nuclear area B-score: higher = more stored lipid (overstorage).
In all, the deposit lists about 17,000 reagents; below is a random part of those with a known target gene and a result. 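Each column is one replicate's B-score; the combined score over replicates was not deposited, so single values may mislead.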 Not all columns of the deposit are shown. No sequences are given here.

With Mfe2 (peroxisomal Multifunctional enzyme type 2) [DRSC19869], how do the results read?
droplet/nuclear area B-score, replicate 1: -0.603

Which result is listed for CG6429 [DRSC06986]?
droplet/nuclear area B-score, replicate 1: -1.32

With prel (preli-like) [DRSC07271], what does the deposit list?
droplet/nuclear area B-score, replicate 1: 0.00239

With rngo (rings lost) [DRSC19903], what was measured?
droplet/nuclear area B-score, replicate 1: -0.00618

What is on record for wam (wampa) [DRSC15171]?
droplet/nuclear area B-score, replicate 1: 1.97

With CG16753 [DRSC08489], what does the deposit list?
droplet/nuclear area B-score, replicate 1: 0.157

Which result is listed for yps (ypsilon schachtel) [DRSC11411]?
droplet/nuclear area B-score, replicate 1: 0.0217

What is on record for aln (allnighter) [DRSC08240]?
droplet/nuclear area B-score, replicate 1: -0.102

For CG34227 [DRSC06788], how do the results read?
droplet/nuclear area B-score, replicate 1: 0.212

What did the screen give for CG34227 [DRSC07034]?
droplet/nuclear area B-score, replicate 1: 0.25

With sut1 (sugar transporter 1) [DRSC07700], what was measured?
droplet/nuclear area B-score, replicate 1: -0.75

What did the screen give for CG30178 [DRSC21911]?
droplet/nuclear area B-score, replicate 1: 3.83

For CG1529 [DRSC20515], what does the deposit list?
droplet/nuclear area B-score, replicate 1: -0.497

For Unc-76 (Uncoordinated 76) [DRSC18193], what was measured?
droplet/nuclear area B-score, replicate 1: 1.32

For Unc-76 (Uncoordinated 76) [DRSC18560], how do the results read?
droplet/nuclear area B-score, replicate 1: -0.388

Which result is listed for CG4293 [DRSC18557]?
droplet/nuclear area B-score, replicate 1: 1.1
